# From patent US9752151B2, “Composition for treatment or metastasis suppression of cancers which includes p34 expression inhibitor or activity inhibitor as active ingredient” (THE ASAN FOUNDATION, priority 2013, dated 2017)
# Chains of the proteins cited; added tags and fusions are not shown. Lines headed by an entry give the natural chain unless they say otherwise; changes in a name come on top. A line that says so, or that is headed by a name, gives the form on record, which may keep a tag or linker.
# T7-tagged wild-type NEDD4-1 (P46934, form named): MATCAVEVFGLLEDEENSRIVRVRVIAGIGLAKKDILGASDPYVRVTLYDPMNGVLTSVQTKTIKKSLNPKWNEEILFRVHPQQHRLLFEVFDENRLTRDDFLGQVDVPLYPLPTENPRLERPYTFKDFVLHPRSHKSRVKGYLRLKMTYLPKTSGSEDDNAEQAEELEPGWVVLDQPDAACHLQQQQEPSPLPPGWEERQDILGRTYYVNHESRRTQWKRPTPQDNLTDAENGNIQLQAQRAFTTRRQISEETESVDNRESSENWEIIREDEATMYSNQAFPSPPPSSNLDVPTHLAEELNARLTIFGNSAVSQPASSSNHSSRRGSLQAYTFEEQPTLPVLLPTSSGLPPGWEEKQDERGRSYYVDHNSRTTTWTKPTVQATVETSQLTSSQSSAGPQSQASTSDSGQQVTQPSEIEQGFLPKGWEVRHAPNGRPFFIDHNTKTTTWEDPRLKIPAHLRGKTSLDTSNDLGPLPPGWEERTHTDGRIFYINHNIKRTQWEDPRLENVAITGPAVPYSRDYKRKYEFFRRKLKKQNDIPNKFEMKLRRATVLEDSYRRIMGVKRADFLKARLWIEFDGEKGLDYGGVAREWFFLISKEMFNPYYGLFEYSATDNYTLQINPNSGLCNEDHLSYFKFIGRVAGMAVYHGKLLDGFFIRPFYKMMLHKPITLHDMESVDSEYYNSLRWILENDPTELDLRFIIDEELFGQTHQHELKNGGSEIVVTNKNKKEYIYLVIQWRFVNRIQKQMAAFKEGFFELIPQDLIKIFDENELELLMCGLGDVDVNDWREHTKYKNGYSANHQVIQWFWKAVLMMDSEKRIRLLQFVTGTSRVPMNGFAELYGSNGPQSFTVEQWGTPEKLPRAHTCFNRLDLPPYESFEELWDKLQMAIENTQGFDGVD
# These are yes or no findings as the source states them, for the method shown. For some of these results: In cells and extracts the contact can be indirect. Some results given as binding are weak or reduced against the parent protein; the word gives no strength. For some of these results: Where a sequence is shown, tags or fusion partners need not be part of it.
# B1: His-tagged p34 (other, UniProt Q9UHV2 1-236, looked up)
# chain: MLSKGLKRKREEEEEKEPLAVDSWWLDPGHTAVAQAPPAVASSSLFDLSVLKLHHSLQQSEPDLRHLVLVVNTLRRIQASMAPAAALPPVPSPPAAPSVADNLLASSDAALSASMASLLEDLSHIEGLSQAPQPLADEGPPGRSIGGAAPSLGALDLLGPATGCLLDDGLEGLFEDIDTSMYDNELWAPASEGLKPGPEDGPGKEEAPELDEAELDYLMDVLVGTQALERPPGPGR
# notes: Expressed in cells and used as lysate; also called His-p34; not shown: His tag
# B2: p34 protein (endogenous, in lysates of human cancer cell lines) (protein, UniProt Q9UHV2 1-236, looked up)
# chain: B1 chain
# B3: GFP-tagged p34 (protein, UniProt Q9UHV2 1-236, looked up, not shown: large carriers)
# chain: B1 chain
# B4: GST-p34 protein (protein, UniProt Q9UHV2 1-236, looked up, not shown: a dimerising Fc or GST)
# chain: B1 chain
# Legend:
# [1] = target: GST-tagged wild-type NEDD4-1 (UniProt P46934); test: GST pull-down of GST-NEDD4-1 with lysate of cells expressing His-p34 (FIG. 10)
# [2] = target: neuronal precursor cell-expressed developmentally down-regulated 4-1 (NEDD4-1), endogenous, in lysates of human cell lines (human) (UniProt P46934); test: immunoprecipitation and Western blotting in cancer cell lines
# [3] = target: neuronal precursor cell-expressed developmentally down-regulated 4-1 (NEDD4-1), endogenous, in lysates of human cell lines (human) (UniProt P46934); test: reciprocal co-immunoprecipitation of endogenous proteins and Western blotting (FIGS. 3 and 4)
# [4] = target: myc-tagged NEDD4-1 (UniProt P46934); test: co-immunoprecipitation from transfected 293 cells, immunoblotting (FIG. 6)
# [5] = target: T7-tagged wild-type NEDD4-1 (UniProt P46934); test: GST pull-down, conclusion of Example 1-3
# [6] = target: T7-tagged wild-type NEDD4-1 (UniProt P46934); test: GST pull-down of purified GST-p34 with lysates of 293 cells expressing T7-tagged NEDD4-1 (FIG. 9)
# [7] = target: T7-tagged wild-type NEDD4-1 (UniProt P46934); test: GST pull-down with purified GST-p34, immunoblot with anti-GST and anti-T7 antibodies (FIG. 7)
binder,measurement,setting,value
B1,binding,[1],binds
B2,binding,[2],binds
same,binding,[3],binds
B3,binding,[4],binds
B4,binding,[5],binds
same,binding,[6],binds
same,binding,[7],binds
